In paper doi:10.1101/2022.11.21.517456:
Results are given in words; binding and its absence hold for the method and conditions named. In cells and extracts the contact can be indirect. Some entries that bind do so weakly or less than the wild type. For part of these data: Tags and fused reporters may be left off the sequences shown. Blank lines part the entries; values can stand above or below the molecule they belong to.

Protein sequences, listed by entry. Tags and fused reporters are not part of them.
UniProt O14980: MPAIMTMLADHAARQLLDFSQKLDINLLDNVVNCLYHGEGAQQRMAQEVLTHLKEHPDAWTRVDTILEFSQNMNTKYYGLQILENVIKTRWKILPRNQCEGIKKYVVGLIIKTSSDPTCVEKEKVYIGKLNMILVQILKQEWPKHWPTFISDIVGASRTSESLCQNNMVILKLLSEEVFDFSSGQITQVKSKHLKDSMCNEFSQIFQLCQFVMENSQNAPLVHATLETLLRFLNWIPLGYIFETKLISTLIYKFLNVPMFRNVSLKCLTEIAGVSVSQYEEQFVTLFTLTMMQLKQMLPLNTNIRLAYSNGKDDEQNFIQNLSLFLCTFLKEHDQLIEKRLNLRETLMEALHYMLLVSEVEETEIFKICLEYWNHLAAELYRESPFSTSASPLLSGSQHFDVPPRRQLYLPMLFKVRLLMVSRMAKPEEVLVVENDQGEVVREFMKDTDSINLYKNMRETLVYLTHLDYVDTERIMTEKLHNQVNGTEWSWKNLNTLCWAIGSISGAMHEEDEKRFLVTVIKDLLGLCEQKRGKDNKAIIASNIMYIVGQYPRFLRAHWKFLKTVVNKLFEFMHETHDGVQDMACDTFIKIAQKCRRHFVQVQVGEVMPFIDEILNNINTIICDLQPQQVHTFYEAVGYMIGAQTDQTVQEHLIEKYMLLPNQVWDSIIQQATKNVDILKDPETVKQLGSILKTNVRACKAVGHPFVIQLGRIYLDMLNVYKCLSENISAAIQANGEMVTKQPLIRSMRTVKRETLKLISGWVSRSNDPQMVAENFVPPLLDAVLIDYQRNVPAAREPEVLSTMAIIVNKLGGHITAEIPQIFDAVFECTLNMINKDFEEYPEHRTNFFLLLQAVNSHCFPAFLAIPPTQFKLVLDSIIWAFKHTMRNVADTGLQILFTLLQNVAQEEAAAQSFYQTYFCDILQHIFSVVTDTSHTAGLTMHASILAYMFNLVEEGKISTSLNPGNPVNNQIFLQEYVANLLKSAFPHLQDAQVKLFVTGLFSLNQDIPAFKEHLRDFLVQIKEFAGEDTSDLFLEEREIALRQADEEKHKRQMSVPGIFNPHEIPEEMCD

Columns and labels:
SFB-YTHDF1-WT = biological target: T1, SFB-YTHDF1-WT (UniProt Q9BYJ9); assay: co-IP
T1 sequence: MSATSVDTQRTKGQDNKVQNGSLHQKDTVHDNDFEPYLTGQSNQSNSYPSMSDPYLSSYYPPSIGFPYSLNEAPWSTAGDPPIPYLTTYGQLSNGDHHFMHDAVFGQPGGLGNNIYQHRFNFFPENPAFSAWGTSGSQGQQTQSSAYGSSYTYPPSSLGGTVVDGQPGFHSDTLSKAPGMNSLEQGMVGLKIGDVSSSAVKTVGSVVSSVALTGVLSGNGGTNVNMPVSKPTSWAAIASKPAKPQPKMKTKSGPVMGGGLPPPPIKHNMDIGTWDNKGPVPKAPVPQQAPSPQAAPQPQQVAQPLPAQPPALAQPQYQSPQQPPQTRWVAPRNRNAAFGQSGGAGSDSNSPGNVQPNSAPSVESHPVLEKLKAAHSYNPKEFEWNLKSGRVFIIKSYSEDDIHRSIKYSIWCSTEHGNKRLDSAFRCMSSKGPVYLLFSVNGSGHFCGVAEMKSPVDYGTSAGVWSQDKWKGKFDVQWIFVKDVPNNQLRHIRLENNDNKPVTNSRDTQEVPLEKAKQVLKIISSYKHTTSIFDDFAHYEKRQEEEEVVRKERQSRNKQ

[1] = biological target: T2, endogenous YTHDF1 (human (endogenous in HeLa)) (UniProt Q9BYJ9); assay: co-IP
T2 sequence: T1 sequence

[2] = biological target: T3, endogenous OGT (human (endogenous in HeLa)) (UniProt O15294); assay: co-IP
T3 sequence: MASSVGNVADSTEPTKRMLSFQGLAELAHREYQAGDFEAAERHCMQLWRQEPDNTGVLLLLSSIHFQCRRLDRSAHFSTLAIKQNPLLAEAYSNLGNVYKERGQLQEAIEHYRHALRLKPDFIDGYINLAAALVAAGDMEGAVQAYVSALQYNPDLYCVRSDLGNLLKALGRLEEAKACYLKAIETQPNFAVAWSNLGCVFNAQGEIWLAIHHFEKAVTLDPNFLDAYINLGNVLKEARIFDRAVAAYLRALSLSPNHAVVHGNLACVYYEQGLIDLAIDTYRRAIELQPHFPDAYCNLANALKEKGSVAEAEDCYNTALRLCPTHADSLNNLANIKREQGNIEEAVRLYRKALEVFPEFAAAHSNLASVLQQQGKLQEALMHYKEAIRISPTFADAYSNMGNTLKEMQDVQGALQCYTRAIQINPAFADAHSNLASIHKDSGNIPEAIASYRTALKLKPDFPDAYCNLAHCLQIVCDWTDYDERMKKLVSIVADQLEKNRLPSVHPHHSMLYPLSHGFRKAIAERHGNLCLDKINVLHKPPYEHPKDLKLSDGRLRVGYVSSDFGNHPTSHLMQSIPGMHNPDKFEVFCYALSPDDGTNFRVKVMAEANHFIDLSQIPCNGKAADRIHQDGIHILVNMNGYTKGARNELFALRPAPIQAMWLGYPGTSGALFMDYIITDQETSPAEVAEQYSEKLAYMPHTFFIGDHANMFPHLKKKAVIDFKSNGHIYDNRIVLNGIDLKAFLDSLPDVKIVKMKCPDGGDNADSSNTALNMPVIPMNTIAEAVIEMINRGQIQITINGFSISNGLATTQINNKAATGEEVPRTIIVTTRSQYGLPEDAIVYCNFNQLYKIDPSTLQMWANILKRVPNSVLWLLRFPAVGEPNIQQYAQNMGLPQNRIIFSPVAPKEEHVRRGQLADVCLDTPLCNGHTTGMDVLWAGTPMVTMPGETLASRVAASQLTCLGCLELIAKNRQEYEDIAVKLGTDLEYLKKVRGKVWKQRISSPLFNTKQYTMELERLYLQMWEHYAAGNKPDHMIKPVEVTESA

recombinant GST-YTHDF1 = biological target: T4, recombinant GST-YTHDF1 (UniProt Q9BYJ9); assay: pull-down
T4 sequence: T1 sequence

Flag-YTHDF1 = biological target: T5, Flag-YTHDF1 (UniProt Q9BYJ9); assay: co-IP
T5 sequence: T1 sequence

Molecule: HA-CRM1 (from UniProt O14980 1-1071)
binding (SFB-YTHDF1-WT): binds

Molecule: endogenous Crm1 (from UniProt O14980 1-1071)
binding [1]: binds

B2: HA-OGT (enzyme, UniProt O15294 1-1046)
chain: T3 sequence
binding (recombinant GST-YTHDF1): binds | binding (Flag-YTHDF1): binds

Further lines, results first:

binding [2]: binds
B1: endogenous YTHDF1 (protein, UniProt Q9BYJ9 1-559)
chain: T1 sequence

binding (recombinant GST-YTHDF1): binds
B3: recombinant His-OGT (enzyme, UniProt O15294 1-1046)
chain: T3 sequence
